Data as given in paper PMC10158761, “Screening of an annexin‐A2‐targeted heptapeptide for pancreatic adenocarcinoma localization” (Molecular Oncology, 2022).
Results are given in words; binding and its absence hold for the method and conditions named. Some binding calls cover weakened binding; strength is not graded here.

Sequences of proteins named here, by UniProt entry; tags and fusion partners are left off.
UniProt P07355: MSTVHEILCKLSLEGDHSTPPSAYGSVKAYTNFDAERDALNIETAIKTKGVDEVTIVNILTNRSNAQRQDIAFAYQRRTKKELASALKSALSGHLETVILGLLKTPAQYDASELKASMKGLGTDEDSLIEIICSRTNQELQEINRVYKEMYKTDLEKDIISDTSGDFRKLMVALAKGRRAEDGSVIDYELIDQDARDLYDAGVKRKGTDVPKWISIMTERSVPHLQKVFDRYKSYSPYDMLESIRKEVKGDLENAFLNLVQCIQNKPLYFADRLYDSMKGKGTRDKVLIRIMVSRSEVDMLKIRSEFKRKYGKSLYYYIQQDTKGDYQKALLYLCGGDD

Columns and labels:
[1] = biological target: ANXA2 on pancreatic cells (human (endogenous in PANC-1 and HPDE6-C7)) (UniProt P07355); experiment: flow cytometry on cells; PANC-1 cells transfected with si-ANXA2, si-NC or blank, in suspension; 20 μM FITC-YW7, 37 °C, 15 min; washed with PBS; only the binder purified
[2] = biological target: ANXA2 on pancreatic cells (human (endogenous in PANC-1 and HPDE6-C7)) (UniProt P07355); experiment: fluorescence microscopy of cells; fluorescent images of FITC-YW7 on PANC-1 cells transfected with si-ANXA2, si-NC or blank; only the binder purified
[3] = biological target: T1, GST-fused ANXA2 recombinant protein (UniProt P07355 1-339); experiment: affinity column with LC/MS detection; 0.7 mg purified recombinant ANXA2 coupled to CNBr-activated Sepharose; 1 mg YW7 added, 1 h at 4 °C; washed with 50 mM Tris-HCl pH 8.0 and 50 mM glycine-0.5 M NaCl pH 4.0; eluents analysed by UPLC-QTOF/MS; both purified
T1 construct: product of 62 kD with GST; No cleavage of GST is described; The size of 62 kD would fit whole ANXA2 (36 kD) plus GST; also called GST-ANXA2; annexin A2; source: E. coli BL21 (DE3), purified (GST tag purification resin)

| binding [1] | binding [2] | Binder | binding [3] |
| --- | --- | --- | --- |
| binds | binds | YWRGVYN (FITC on the N-terminus via a spacer of 6-aminocaproic acid) [FITC-labeled YW7] | – |
| – | – | YWRGVYN [YW7 peptide] | binds |
